PubChem BioAssay AID1224828 – NIAID, 2016

Aim: 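Regulators linking TLR4 signalling to p65 nuclear translocation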 (primary screen)
Cells: mouse RAW264.7 G9 macrophage reporter cells (GFP-p65, Tnf promoter-mCherry)
Reagents: siRNA pool against mouse genes, 100 nM
Duration: 2 days siRNA transfection, then 40 min LPS before fixation
Treatment: LPS (Salmonella minnesota R595) at 10 ng/ml
Measured: 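Microscopy ratio of nuclear to perinuclear-ring GFP-p65 signal, scaled to the plate median; gene score is the average of two replicate robust z-scores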
Scale: p65 translocation robust z-score: higher = more nuclear NF-kappaB p65 after LPS than the plate median; nuclear/cytoplasmic p65 ratio: higher = more nuclear NF-kappaB p65
Rule for the call: 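Called active when z exceeds 3.3 or falls under -1.56 (median of Tlr4 controls), giving activity score of at least 50; no calls for control wells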
Calls: active = hit (p65 shift raised or lowered); inactive = no clear change
Shown is an unselected part of about 17,000 reagents tested. Of all reagents, 762 (4.5%) were called active. 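Active calls include both raised and lowered p65 entry, mostly lowered; wells with fewer than 50 cells lack a z-score.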 The raw values are shown without normalisation. Reagent sequences are not shown.

p65 translocation robust z-score | nuclear/cytoplasmic p65 ratio, rep 1 | nuclear/cytoplasmic p65 ratio, rep 2 | low cell count flag | call | gene
– | 1.14 | 1.27 | fewer than 50 cells per well; well left out of scoring | inactive | Cacna2d2 (calcium channel, voltage-dependent, alpha 2/delta subunit 2)
-0.22 | 1.58 | 1.58 | enough cells to score | inactive | Abcc6 (ATP-binding cassette, sub-family C member 6)
-0.04 | 1.64 | 1.58 | enough cells to score | inactive | Manf (mesencephalic astrocyte-derived neurotrophic factor)
– | 1.12 | 0.78 | fewer than 50 cells per well; well left out of scoring | inactive | Ppp1r35 (protein phosphatase 1, regulatory subunit 35)
-0.23 | 1.41 | 1.36 | enough cells to score | inactive | Csde1 (cold shock domain containing E1, RNA binding)
0.45 | 1.6 | 1.56 | enough cells to score | inactive | Pttg1 (pituitary tumor-transforming gene 1)
-0.75 | 1.6 | 1.26 | enough cells to score | inactive | Irak2 (interleukin-1 receptor-associated kinase 2)
0.09 | 1.42 | 1.24 | enough cells to score | inactive | Rufy2 (RUN and FYVE domain-containing 2)
-0.69 | 1.42 | 1.49 | enough cells to score | inactive | Spink1 (serine peptidase inhibitor, Kazal type 1)
0.38 | 1.48 | 1.4 | enough cells to score | inactive | BCLP2
– | 1.36 | 1.24 | fewer than 50 cells per well; well left out of scoring | inactive | Rubcnl
– | 1.81 | 1.39 | fewer than 50 cells per well; well left out of scoring | inactive | Polk (polymerase (DNA directed), kappa)
0.53 | 1.71 | 1.68 | enough cells to score | inactive | Brap (BRCA1 associated protein)
– | 1.21 | 1.04 | fewer than 50 cells per well; well left out of scoring | inactive | Gm9517 (predicted gene 9517)
0 | 1.41 | 1.38 | enough cells to score | inactive | Chst5 (carbohydrate sulfotransferase 5)

2 of these entries in another layout.
p65 translocation robust z-score,"nuclear/cytoplasmic p65 ratio, rep 1","nuclear/cytoplasmic p65 ratio, rep 2",low cell count flag,call,gene
,1.21,1.04,fewer than 50 cells per well; well left out of scoring,inactive,Gm9517 (predicted gene 9517)
0,1.41,1.38,enough cells to score,inactive,Chst5 (carbohydrate sulfotransferase 5)

Further reagents follow.
p65 translocation robust z-score | nuclear/cytoplasmic p65 ratio, rep 1 | nuclear/cytoplasmic p65 ratio, rep 2 | low cell count flag | call | gene
-1.9 | 1.36 | 1.16 | enough cells to score | active | Rfk (riboflavin kinase)
– | 1.31 | 1.27 | fewer than 50 cells per well; well left out of scoring | inactive | Rnf43 (ring finger protein 43)
-1.35 | 1.44 | 1.39 | enough cells to score | inactive | Rab35 (RAB35, member RAS oncogene family)
– | 1.41 | 0.875 | fewer than 50 cells per well; well left out of scoring | inactive | Or6c3b (olfactory receptor family 6 subfamily C member 3B)
1.31 | 1.57 | 1.77 | enough cells to score | inactive | Zfp273 (zinc finger protein 273)
0.09 | 1.27 | 1.14 | enough cells to score | inactive | Aldoart1 (aldolase 1 A, retrogene 1)
-0.06 | 1.52 | 1.37 | enough cells to score | inactive | Plcb4 (phospholipase C, beta 4)
– | 1.52 | 1.14 | fewer than 50 cells per well; well left out of scoring | inactive | Smyd1 (SET and MYND domain containing 1)
0.23 | 1.52 | 1.56 | enough cells to score | inactive | Med4 (mediator complex subunit 4)
